We go through three compounds from patent publication US7253165B2, “Benzisoxazolyl-, pyridoisoxazolyl-and benzthienyl-phenoxy derivatives useful as D4 antagonists” (Aventis Pharmaceuticals Inc., priority 1999, dated 2007).

Protein sequences, listed by entry. Tags and fused reporters are not part of them. Chains listed by the source or under a name are the forms on record and can include a tag or linker.
UniProt P21917, with tags, fused parts or gaps DEL265-296: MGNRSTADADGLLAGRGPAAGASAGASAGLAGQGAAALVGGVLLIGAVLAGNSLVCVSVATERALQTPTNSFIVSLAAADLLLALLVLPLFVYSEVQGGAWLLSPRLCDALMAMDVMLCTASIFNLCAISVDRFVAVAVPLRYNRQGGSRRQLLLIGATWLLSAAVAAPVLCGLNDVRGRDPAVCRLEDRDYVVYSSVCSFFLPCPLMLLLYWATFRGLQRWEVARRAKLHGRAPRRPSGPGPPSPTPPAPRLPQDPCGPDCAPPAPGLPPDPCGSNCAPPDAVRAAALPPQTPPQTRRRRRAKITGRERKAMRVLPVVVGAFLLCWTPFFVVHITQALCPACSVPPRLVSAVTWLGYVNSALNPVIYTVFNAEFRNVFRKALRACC

Molecules are shown by their SMILES. pKi: −log10 of the molar value. The structures given here were assigned with low confidence; some may be wrong.

The target of this test is human D4 receptor (D4.2 sub-type) (Homo sapiens, UniProt P21917, DEL265-296). Put plainly: D4 receptor binding assay, displacement of 3H-spiperone. The conditions noted are these: read-out: D4 RBA Ki; 3H-spiperone 0.25 nM, membranes of HEK cells transfected with human D4.2; * = HCl salt. Here is the method: D4 receptor-binding affinities of the compounds were evaluated according to their ability to reduce binding of ^3H-spiperone as compared to the reference compound clozapine. The potency of the test compound to reduce ^3H-spiperone binding directly correlated to its binding affinity for the receptor.
[…] (human embryonic kidney) cells stably transfected with human D4 receptor (D4.2 sub-type) were grown in NUNC cell factories for 5 days (75% confluency) without a media change and removed with versene (approximately 19 mg of cells per cell factory tray). The cells were then centrifuged in a Sorval centrifuge for 10 min, 5000 rpm (GS3 rotor) and the pellets quickly frozen in liquid nitrogen and stored at −80° C. until used in binding assay. When used in the assay, cells were thawed on ice for 20 min and then 10 mL of incubation buffer (50 mM Tris, 1 mM EDTA, 4 mM MgCl2, 5 mM KCl, 1.5 mM CaCl2, 120 mM NaCl, pH 7.4) was added. The cells were then vortexed to resuspend pellet and homogenized with a Kinematica, CH-6010 Kriens-LU, homogenizer for 15 seconds at setting 7. Concentration of receptor protein was determined using the Pierce BCA assay.
The incubation was started by the addition of 100 μl (50 μg protein) membrane homogenate to a solution of 300 μl incubation buffer and 100 μl (0.25 nM final conc.) ^3H-spiperone (90 Ci/mmol, Amersham, diluted in borosilicate glass vial) in 96-well polypropylene plates (1 ML per well). […] The plates were sealed and counted in the Packard Top Count (3 minutes per well).
The incubation was started by the addition of 100 μl (50 μg protein) membrane homogenate to a solution of 200 μl incubation buffer, 100 μl ^3H-spiperone (90 Ci/mmol, Amersham, diluted in borosilicate glass vial to 0.25 nM final conc.) and 100 μl (30 μM final conc.) of fresh dopamine (Research Biochemicals Inc., light protected and dissolved in incubation buffer) in 96-well polypropylene plates (1 mL per well). […] The filters were washed and counted using the same procedure as in the total binding assay described above to give the non-specific binding value (NSB). […]
What is called pKi is the negative decadic logarithm of the Ki, by convention in mol/L. For the compound `Fc1ccc2c(-c3ccc(OCCCN4CCCCC4)cc3)noc2c1`, the pKi was 8.01.

In the case of `O[C@@H](COc1ccc(-c2noc3cc(F)ccc23)cc1)CN1CCOCC1` [Example 24, (R)-1-[4-(6-fluoro-benzo[d]isoxazol-3-yl)-phenoxy]-3-morpholin-4-yl-propan-2-ol], the pKi is 7.06.

`O[C@@H](COc1ccc(-c2noc3cc(F)ccc23)cc1)CN1CCN(c2ccccc2)CC1` [Example 26, (R)-1-[4-(6-fluoro-benzo[d]isoxazol-3-yl)-phenoxy]-3-(4-phenyl-piperazin-1-yl)-propan-2-ol]: the pKi is 7.77.
